Values from PubChem BioAssay AID743121 (NCATS, 2013).
The deposit covers about 26,000 reagents; shown is a random part of them. In the full data, 167 (0.63%) were called active. 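Calls are per gene from RSA p-values that are not deposited; an individual active-marked siRNA can sensitise only weakly.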 Unmarked entries are inactive. The numbers tell different reagents against one gene apart. No sequences are given here.

Purpose: 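Partners whose loss is lethal together with topoisomerase I blockade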 (primary screen)
Cells: MDA-MB-231 cells, a human breast cancer line
Reagents: single siRNA against human genes, 20 nM siRNA (0.8 pmol per well)
Timing: 120 h (drug added 48 h after transfection, read 72 h later)
Conditions: camptothecin 20 nM (about EC30) for 72 h; vehicle 0.1% DMSO in parallel plates
Measurement: 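Cell viability by ATP luminescence (CellTiter-Glo) as % of non-targeting siRNA wells, and the log2 ratio of viability without drug over viability with camptothecin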
Scale: log2 vehicle/camptothecin viability: higher = stronger sensitisation to camptothecin; viability with camptothecin and viability without drug: higher = more viable cells
Rule for the call: 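Each gene scored by redundant siRNA activity (RSA) over its individual siRNA ratios; a gene is called active at p < 0.001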

| target | reagent | log2 vehicle/camptothecin viability | viability with camptothecin (% of control) | viability without drug (% of control) |
| --- | --- | --- | --- | --- |
| HERC4 (GeneID 26091) | 1 | -0.249 | 72.6 | 61.1 |
| HERC4 (GeneID 26091) | 2 | -0.658 | 71.6 | 45.4 |
| HERC4 (GeneID 26091) | 3 | -0.04 | 107 | 104 |
| PTGER2 (GeneID 5732) | 1 | -0.0591 | 89.2 | 85.6 |
| PTGER2 (GeneID 5732) | 2 | -0.573 | 75.5 | 50.8 |
| PTGER2 (GeneID 5732) | 3 | -0.453 | 98.9 | 72.2 |
| PTGER2 (GeneID 5732) | 4 | 0.107 | 104 | 112 |
| RPA1 (GeneID 6117) | 1 | -0.0306 | 11 | 10.8 |
| RPA1 (GeneID 6117) | 2 | -0.278 | 47.5 | 39.2 |
| RPA1 (GeneID 6117) | 3 | 0.0315 | 41.1 | 42 |
| RPA1 (GeneID 6117) | 4 | 0.0785 | 27.3 | 28.8 |
| DKK1 (GeneID 22943) | 1 | 0.23 | 55.2 | 64.8 |
| DKK1 (GeneID 22943) | 2 | 0.162 | 40.7 | 45.5 |
| DKK1 (GeneID 22943) | 3 | -0.0513 | 86.8 | 83.8 |
| DKK1 (GeneID 22943) | 4 | -0.148 | 75.3 | 68 |
| GH2 (GeneID 2689) | 1 | 0.168 | 79.7 | 89.6 |
| GH2 (GeneID 2689) | 2 | 0.204 | 74.2 | 85.5 |
| GH2 (GeneID 2689) | 3 | -0.258 | 71 | 59.4 |
| TNXA (GeneID 7146) | 1 | -0.0912 | 79.9 | 75 |
| TNXA (GeneID 7146) | 2 | -0.0772 | 89.5 | 84.8 |
| TNXA (GeneID 7146) | 3 | -0.458 | 71.3 | 51.9 |
| TNXA (GeneID 7146) | 4 | -0.433 | 56.3 | 41.7 |
| CCL4L2 (GeneID 9560) | 1 | 0.017 | 67.1 | 67.9 |
| CCL4L2 (GeneID 9560) | 2 | 0.00593 | 93.6 | 94 |
| WT1-AS (GeneID 51352) | 1 | 0.0183 | 109 | 110 |
| WT1-AS (GeneID 51352) | 2 | 0.00401 | 41.1 | 41.2 |
| WT1-AS (GeneID 51352) | 3 | -0.148 | 83 | 74.9 |
| WT1-AS (GeneID 51352) | 4 | -0.738 | 85.1 | 51 |
| RGS9 (GeneID 8787) | 1 | 0.734 | 51 | 84.8 |
| RGS9 (GeneID 8787) | 2 | 0.549 | 23.1 | 33.8 |
| RGS9 (GeneID 8787) | 3 | 0.178 | 68.9 | 77.9 |
| RGS9 (GeneID 8787) | 4 | -0.197 | 109 | 95.5 |
| MAPKAPK2 (GeneID 9261) | 1 | -0.392 | 83.7 | 63.8 |
| MAPKAPK2 (GeneID 9261) | 2 | -0.445 | 75.9 | 55.8 |
| MAPKAPK2 (GeneID 9261) | 3 | -0.173 | 114 | 101 |
| MAPKAPK2 (GeneID 9261) | 4 | 0.198 | 15.3 | 17.5 |

Not a retest: an excerpt of the list.
| target | reagent | log2 vehicle/camptothecin viability | viability with camptothecin (% of control) | viability without drug (% of control) |
| --- | --- | --- | --- | --- |
| GH2 (GeneID 2689) | 2 | 0.204 | 74.2 | 85.5 |
| GH2 (GeneID 2689) | 3 | -0.258 | 71 | 59.4 |
| TNXA (GeneID 7146) | 1 | -0.0912 | 79.9 | 75 |
| TNXA (GeneID 7146) | 2 | -0.0772 | 89.5 | 84.8 |
| TNXA (GeneID 7146) | 3 | -0.458 | 71.3 | 51.9 |
| TNXA (GeneID 7146) | 4 | -0.433 | 56.3 | 41.7 |

Additional results follow.
| target | reagent | log2 vehicle/camptothecin viability | viability with camptothecin (% of control) | viability without drug (% of control) |
| --- | --- | --- | --- | --- |
| CADM2 (GeneID 253559) | 1 | -0.0156 | 113 | 112 |
| CADM2 (GeneID 253559) | 2 | 0.206 | 64.5 | 74.4 |
| CADM2 (GeneID 253559) | 3 | -0.169 | 74.3 | 66.1 |
| CADM2 (GeneID 253559) | 4 | 0.191 | 86.1 | 98.3 |
| ACR (GeneID 49) | 1 | 0.153 | 63.9 | 71 |
| ACR (GeneID 49) | 2 | -0.14 | 52.5 | 47.7 |
| ACR (GeneID 49) | 3 | 0.324 | 49 | 61.3 |
| HMGCR (GeneID 3156) | 1 | 0.257 | 100 | 120 |
| HMGCR (GeneID 3156) | 2 | 0.213 | 49.8 | 57.7 |
| HMGCR (GeneID 3156) | 3 | -0.102 | 78.5 | 73.2 |
| HMGCR (GeneID 3156) | 4 | 0.0319 | 80.3 | 82.1 |
| MSTN (GeneID 2660) | 1 | 0.194 | 43 | 49.1 |
| MSTN (GeneID 2660) | 2 | -0.0566 | 82.1 | 79 |
| MSTN (GeneID 2660) | 3 | -0.101 | 86.1 | 80.3 |
| MSTN (GeneID 2660) | 4 | -0.369 | 104 | 80.3 |
| FSD2 (GeneID 123722) | 1 | -0.0684 | 101 | 96.8 |
| FSD2 (GeneID 123722) | 2 | -0.0406 | 84.8 | 82.4 |
| FSD2 (GeneID 123722) | 3 | 0.0663 | 84 | 87.9 |
| FSD2 (GeneID 123722) | 4 | 0.0822 | 50.5 | 53.5 |
| SMARCAL1 (GeneID 50485) | 1 | -0.143 | 108 | 97.4 |
| SMARCAL1 (GeneID 50485) | 2 | -0.0403 | 79.4 | 77.2 |
| SMARCAL1 (GeneID 50485) | 3 | -0.456 | 79.3 | 57.8 |
| SMARCAL1 (GeneID 50485) | 4 | -0.0207 | 88.9 | 87.6 |
| RNF126 (GeneID 55658) | 1 | -0.368 | 69.3 | 53.7 |
| RNF126 (GeneID 55658) | 2 | 0.137 | 94.8 | 104 |
| RNF126 (GeneID 55658) | 3 | -0.197 | 110 | 96.3 |
| RNF126 (GeneID 55658) | 4 | -0.00544 | 96 | 95.6 |
| PREPL (GeneID 9581) | 1 | -0.25 | 112 | 94.5 |
| PREPL (GeneID 9581) | 2 | -0.0512 | 85.4 | 82.5 |
| PREPL (GeneID 9581) | 3 | -0.162 | 102 | 90.8 |
| PREPL (GeneID 9581) | 4 | -0.423 | 64.6 | 48.1 |
| SELL (GeneID 6402) | 1 | 0.326 | 75.7 | 94.9 |
| SELL (GeneID 6402) | 2 | 0.338 | 98.9 | 125 |
| SELL (GeneID 6402) | 3 | -0.461 | 122 | 88.9 |
